Test results taken from US20170234870A1.
No constants are given. Whether binding was seen depends on the method and setting. Some results given as binding are weak or reduced against the parent protein; the word gives no strength. Where a sequence is shown, tags or fusion partners need not be part of it.

By UniProt entry, the sequences of proteins in these tests, tags left out. Where a name states a change or a piece, a line headed by the entry shows the natural chain unless it says otherwise.
UniProt P62873: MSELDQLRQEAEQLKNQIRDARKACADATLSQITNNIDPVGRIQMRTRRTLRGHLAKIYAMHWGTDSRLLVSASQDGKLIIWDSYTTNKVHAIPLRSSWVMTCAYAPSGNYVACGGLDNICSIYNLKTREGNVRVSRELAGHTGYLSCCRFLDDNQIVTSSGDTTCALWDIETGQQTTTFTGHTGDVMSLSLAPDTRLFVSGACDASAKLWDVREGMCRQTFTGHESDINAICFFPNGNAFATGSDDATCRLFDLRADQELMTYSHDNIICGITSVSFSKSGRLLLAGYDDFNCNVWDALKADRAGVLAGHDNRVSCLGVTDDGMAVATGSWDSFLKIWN

Tests used:
[1] = target: Gβ1 / Rluc F2-Gγ5 dimer (untagged Gβ1 with Gγ5 tagged at its N-terminus with residues 111 to 311 of RlucII) (UniProt P62873); experiment: Rluc protein complementation assay in HEK293 cells expressing TPαR, Gβ1 and Gα11
[2] = target: Gβ1 / GFP10-Gγ5 dimer (untagged Gβ1 with Gγ5 tagged at its N-terminus with GFP10) (UniProt P62873); experiment: BRET dose-response in HEK293 cells with TPαR and Gαq, U46619

Binder | binding [1] | binding [2]
GRK2-Rluc F1 (GRK2 tagged at its C-terminus with residues 1 to 110 of RlucII) (protein) MADLEAVLADVSYLMAMEKSKATPAARASKKILLPEPSIRSVMQKYLEDRGEVTFEKIFSQKLGYLLFRDFCLNHLEEARPLVEFYEEIKKYEKLETEEERVARSREIFDSYIMKELLACSHPFSKSATEHVQGHLGKKQVPPDLFQPYIEEICQNLRGDVFQKFIESDKFTRFCQWKNVELNIHLTMNDFSVHRIIGRGGFGEVYGCRKADTGKMYAMKCLDKKRIKMKQGETLALNERIMLSLVSTGDCPFIVCMSYAFHTPDKLSFILDLMNGGDLHYHLSQHGVFSEADMRFYAAEIILGLEHMHNRFVVYRDLKPANILLDEHGHVRISDLGLACDFSKKKPHASVGTHGYMAPEVLQKGVAYDSSADWFSLGCMLFKLLRGHSPFRQHKTKDKHEIDRMTLTMAVELPDSFSPELRSLLEGLLQRDVNRRLGCLGRGAQEVKESPFFRSLDWQMVFLQKYPPPLIPPRGEVNAADAFDIGSFDEEDTKGIKLLDSDQELYRNFPLTISERWQQEVAETVFDTINAETDRLEARKKAKNKQLGHEEDYALGKDCIMHGYMSKMGNPFLTQWQRRYFYLFPNRLEWRGEGEAPQSLLTMEEIQSVEETQIKERKCLLLKIRGGKQFILQCDSDPELVQWKKELRDAYREAQQLVQRVPKMKNKPRSPVVELSKVPLVQRGSANGLGSAGWGKLGSAGSGSAGSMTSKVYDPEQRKRMITGPQWWARCKQMNVLDSFINYYDSEKHAENAVIFLHGNATSSYLWRHVVPHIEPVARCIIPDLIGMGKSGKSGNGSYRLLDHYKYLTAWFELLNL | binds | –
RlucII-GRK2 (GRK2 tagged at its N-terminus with RlucII) (protein) MTSKVYDPEQRKRMITGPQWWARCKQMNVLDSFINYYDSEKHAENAVIFLHGNATSSYLWRHVVPHIEPVARCIIPDLIGMGKSGKSGNGSYRLLDHYKYLTAWFELLNLPKKIIFVGHDWGAALAFHYSYEHQDKIKAIVHAESVVDVIESWDEWPDIEEDIALIKSEEGEKMVLENNFFVETVLPSKIMRKLEPEEFAAYLEPFKEKGEVRRPTLSWPREIPLVKGGKPDVVQIVRNYNAYLRASDDLPKMFIESDPGFFSNAIVEGAKKFPNTEFVKVKGLHFSQEDAPDEMGKYIKSFVERVLKNEQGGSGSGSGSMADLEAVLADVSYLMAMEKSKATPAARASKKILLPEPSIRSVMQKYLEDRGEVTFEKIFSQKLGYLLFRDFCLNHLEEARPLVEFYEEIKKYEKLETEEERVARSREIFDSYIMKELLACSHPFSKSATEHVQGHLGKKQVPPDLFQPYIEEICQNLRGDVFQKFIESDKFTRFCQWKNVELNIHLTMNDFSVHRIIGRGGFGEVYGCRKADTGKMYAMKCLDKKRIKMKQGETLALNERIMLSLVSTGDCPFIVCMSYAFHTPDKLSFILDLMNGGDLHYHLSQHGVFSEADMRFYAAEIILGLEHMHNRFVVYRDLKPANILLDEHGHVRISDLGLACDFSKKKPHASVGTHGYMAPEVLQKGVAYDSSADWFSLGCMLFKLLRGHSPFRQHKTKDKHEIDRMTLTMAVELPDSFSPELRSLLEGLLQRDVNRRLGCLGRGAQEVKESPFFRSLDWQMVFLQKYPPPLIPPRGEVNAADAFDIGSFDEEDTKGIKLLDSDQELYRNFPLTISERWQQEVAETVFDTINAETDRLEARKKAKNKQLGHEEDYALGKDCIMHGYMSKMGNPFLTQWQRRYFYLFPNRLEWRGEGEAPQSLLTMEEIQSVEETQIKERKCLLLKIRGGKQFILQCDSDPELVQWKKELRDAYREAQQLVQRVPKMKNKPRSPVVELSKVPLVQRGSANGL | – | binds
